Assay results reported in patent publication US20160009801A1 (EMORY UNIVERSITY, published 2016).
Results are given in words; binding and its absence hold for the method and conditions named. Some binding calls cover weakened binding; strength is not graded here.

The chains behind the UniProt entries cited, without tags or fusion partners. Residues count along the entry.
UniProt P07359, residues 17-652: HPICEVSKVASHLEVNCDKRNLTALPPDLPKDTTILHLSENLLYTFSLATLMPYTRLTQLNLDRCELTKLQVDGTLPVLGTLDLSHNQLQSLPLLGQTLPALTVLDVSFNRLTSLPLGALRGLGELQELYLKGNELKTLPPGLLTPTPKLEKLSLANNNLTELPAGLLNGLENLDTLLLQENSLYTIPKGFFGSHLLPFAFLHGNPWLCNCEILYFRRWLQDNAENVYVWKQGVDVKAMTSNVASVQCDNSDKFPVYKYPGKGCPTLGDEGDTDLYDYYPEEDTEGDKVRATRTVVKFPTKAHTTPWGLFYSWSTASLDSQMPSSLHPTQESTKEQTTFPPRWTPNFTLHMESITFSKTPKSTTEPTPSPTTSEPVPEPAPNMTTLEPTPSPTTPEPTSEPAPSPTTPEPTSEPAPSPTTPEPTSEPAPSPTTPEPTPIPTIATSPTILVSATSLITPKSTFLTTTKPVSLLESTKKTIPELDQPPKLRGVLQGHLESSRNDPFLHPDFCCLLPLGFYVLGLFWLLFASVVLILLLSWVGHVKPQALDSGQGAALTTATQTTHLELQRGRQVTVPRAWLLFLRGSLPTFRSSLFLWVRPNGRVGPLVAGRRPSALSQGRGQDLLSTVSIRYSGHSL

B1: monoclonal antibody 2B9 (antibody, IgG2b, V domains shown)
VH: IQLVQSGPELKKPGETVKISCKASGYTFTDYAMHWVKQAPAKGLKWMGWINTETGEPTYADDFKGRFAFSLETSASTAYLQINNLKNEDTATYFCAGDPLDYWGQGTTLTVSS
VL: DVVVTQTPLSLPVSFGDQVSISCRSSQSLANSYGNTYLSWYLHKPGQSPQLLIYEISNRFSGVSDRFSGSGSGTDFTLKISTIKPEDLGIYYCLQGTHQPWTFGGGTKLEIK
B2: monoclonal antibody 2D2 (antibody, V domains shown)
VH: QIQLVQSGPELKKPGETVKISCKASGYTFTDYAMHWVKQAPAKGLKWMGWINTETGEPTYADDFKGRFAFSLETSASTAYLQINNLKNEDTATYFCAGDPLDYWGQGTTLTVSS
VL: B1 VL
B3: monoclonal antibody 1H5 (antibody, IgG3, V domains shown)
VH: EVKLVESGGGLVKPGGSLKLSCAASGFAFSSYDMSWVRQTPEKRLEWVATISSGGSYTFYPESVKGRITVYRDNARNTLYLQMSSLRSEDTALYYCATLHYNYERGAVDYWGQGTSVTVSS
VL: DVVVTQTPSSMYASLGERVSITCKASQDINRYLSWIQQKPGKSPKTLIYRTDRLVEGAPSRFSGSGSGQDYSLTISSLEYEDMGIYNCLQYDEFPVTFGAGTKLEIKR

What follows are binders tested against human glycoprotein Ib alpha (GPIba) on platelets (human) (UniProt P07359) (assay: flow cytometry on washed human platelets, FITC goat anti-mouse IgG).

binding | Binder
binds | B1
binds | B2
binds | B3
